These are yes or no findings as the source states them, for the method shown. Binding seen in cells or lysates may run through a third protein. Some binding calls cover weakened binding; strength is not graded here.
Columns and labels:
FLAG-Cdc20 [1] = molecular target: FLAG-Cdc20 (UniProt Q12834); test: co-IP; HEK293T cells transfected with FLAG-Cdh1, FLAG-Cdc20 or FLAG-YFP; FLAG-tagged proteins immunoprecipitated with anti-FLAG M2 affinity gel from cleared lysates (50 mM Tris-Cl pH 7.4, 150 mM NaCl, 2 mM MgCl2, 1% Triton X-100), eluted with FLAG peptide; co-purified endogenous Stau1 detected with anti-Stau1 antibody by western blotting
Stau1^Δ2-FLAG = Stau1^Δ2-FLAG (UniProt O95793); test: co-IP; HEK293T cells co-transfected with HA-Cdh1 or HA-Cdc20 and a FLAG-tagged protein; FLAG-tagged proteins immunoprecipitated with anti-FLAG antibody, co-purified proteins detected with anti-HA antibody by western blotting
FLAG-Cdc20 [2] = molecular target: FLAG-Cdc20 (UniProt Q12834); test: as above
Stau1^55-FLAG = Stau1^55-FLAG (UniProt O95793); test: as above

Amino acid sequences for entries named in this document (tags omitted). A change or cut given only in a name is not applied to a line headed by its entry. Residues count along the entry.
UniProt Q12834: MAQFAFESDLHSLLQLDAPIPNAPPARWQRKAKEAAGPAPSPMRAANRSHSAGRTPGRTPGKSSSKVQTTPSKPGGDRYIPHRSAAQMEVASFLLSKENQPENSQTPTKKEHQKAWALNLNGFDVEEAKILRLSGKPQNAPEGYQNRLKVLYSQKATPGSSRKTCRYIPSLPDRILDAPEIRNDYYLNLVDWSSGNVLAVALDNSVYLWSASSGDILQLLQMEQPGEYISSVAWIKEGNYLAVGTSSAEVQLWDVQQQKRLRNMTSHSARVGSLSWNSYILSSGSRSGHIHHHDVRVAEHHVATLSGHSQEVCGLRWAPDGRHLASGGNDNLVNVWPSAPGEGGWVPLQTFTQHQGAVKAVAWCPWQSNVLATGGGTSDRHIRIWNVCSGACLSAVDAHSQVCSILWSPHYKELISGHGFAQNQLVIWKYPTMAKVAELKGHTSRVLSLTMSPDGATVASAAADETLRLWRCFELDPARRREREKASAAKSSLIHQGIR
UniProt O95793: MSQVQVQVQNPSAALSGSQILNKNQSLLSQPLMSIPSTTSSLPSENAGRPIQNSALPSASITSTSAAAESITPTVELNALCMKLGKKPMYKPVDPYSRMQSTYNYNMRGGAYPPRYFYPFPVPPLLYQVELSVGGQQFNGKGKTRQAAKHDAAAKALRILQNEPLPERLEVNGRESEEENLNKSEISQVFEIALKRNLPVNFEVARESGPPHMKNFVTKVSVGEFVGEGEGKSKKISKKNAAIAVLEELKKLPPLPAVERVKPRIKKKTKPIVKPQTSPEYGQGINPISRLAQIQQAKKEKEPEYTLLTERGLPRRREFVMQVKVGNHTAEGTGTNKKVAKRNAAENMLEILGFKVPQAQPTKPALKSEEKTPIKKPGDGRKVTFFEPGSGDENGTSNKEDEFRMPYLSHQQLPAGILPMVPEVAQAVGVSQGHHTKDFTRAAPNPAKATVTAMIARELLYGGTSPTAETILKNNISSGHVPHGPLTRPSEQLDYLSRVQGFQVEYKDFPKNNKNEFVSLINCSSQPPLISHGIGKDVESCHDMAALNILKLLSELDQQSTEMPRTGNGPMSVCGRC
Stau1^55-FLAG: residues 82-577 of O95793
Stau1^Δ2-FLAG: residues 170-577 of O95793
UniProt Q9UM11: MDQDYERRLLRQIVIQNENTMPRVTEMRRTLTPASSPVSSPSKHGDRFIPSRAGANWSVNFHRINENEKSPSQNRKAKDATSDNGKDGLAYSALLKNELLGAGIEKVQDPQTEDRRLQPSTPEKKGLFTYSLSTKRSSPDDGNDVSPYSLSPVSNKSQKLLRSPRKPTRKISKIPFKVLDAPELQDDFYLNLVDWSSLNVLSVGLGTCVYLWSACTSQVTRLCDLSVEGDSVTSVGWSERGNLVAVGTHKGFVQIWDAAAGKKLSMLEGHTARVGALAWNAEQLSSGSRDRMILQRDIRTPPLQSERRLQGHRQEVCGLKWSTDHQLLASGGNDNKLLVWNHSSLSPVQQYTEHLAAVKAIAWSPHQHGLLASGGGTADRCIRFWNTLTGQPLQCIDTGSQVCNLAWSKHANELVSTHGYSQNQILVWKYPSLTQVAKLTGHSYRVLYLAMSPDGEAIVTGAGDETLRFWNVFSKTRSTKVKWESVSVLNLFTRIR

binding (FLAG-Cdc20 [1])	binding (Stau1^Δ2-FLAG)	binding (FLAG-Cdc20 [2])	binding (Stau1^55-FLAG)	Substance
binds				Staufen1, 55 kDa isoform (Stau1^55), endogenous (from UniProt O95793-2 1-496)
	no binding	binds		HA-Cdh1 (from UniProt Q9UM11 1-496)
	no binding		binds	HA-Cdc20 (from UniProt Q12834 1-499)
